Measurements reported in patent publication US20200297795A1.
Results are given in words; binding and its absence hold for the method and conditions named. Some results given as binding are weak or reduced against the parent protein; the word gives no strength.

Protein sequences, listed by entry. Tags and fused reporters are not part of them. Residues count along the entry.
UniProt P27512, residues 20-289: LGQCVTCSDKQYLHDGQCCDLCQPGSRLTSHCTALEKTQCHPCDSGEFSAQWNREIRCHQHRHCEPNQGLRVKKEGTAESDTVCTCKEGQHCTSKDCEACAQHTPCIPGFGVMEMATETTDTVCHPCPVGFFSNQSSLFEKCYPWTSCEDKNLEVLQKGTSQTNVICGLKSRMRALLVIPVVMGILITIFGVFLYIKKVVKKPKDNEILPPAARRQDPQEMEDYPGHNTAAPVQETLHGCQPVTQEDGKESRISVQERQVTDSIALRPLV

Assays:
[1] = target: mouse CD40 on T cells (Th40 cells), B cells and PBMC of NOD or C57BL/6 mice (mouse) (UniProt P27512); test: flow cytometry, FITC-conjugated KGYY6 on cells of EAE-induced C57BL/6 mice
[2] = target: mouse CD40 on T cells (Th40 cells), B cells and PBMC of NOD or C57BL/6 mice (mouse) (UniProt P27512); test: flow cytometry, PBMC of C57BL/6 mice (non-induced, 6 and 13 days post EAE induction) stained with FITC-conjugated KGYY6, compared with B6.CD40KO PBMC
[3] = target: mouse CD40 on T cells (Th40 cells), B cells and PBMC of NOD or C57BL/6 mice (mouse) (UniProt P27512); test: flow cytometry, FITC-conjugated KGYY6 on PBMC, dLN and splenic lymphocytes
[4] = target: mouse CD40 on T cells (Th40 cells), B cells and PBMC of NOD or C57BL/6 mice (mouse) (UniProt P27512); test: flow cytometry, FITC-conjugated KGYY6 on PBMC
[5] = target: mouse CD40 on T cells (Th40 cells), B cells and PBMC of NOD or C57BL/6 mice (mouse) (UniProt P27512); test: flow cytometry, FITC-conjugated KGYY6
[6] = target: mouse CD40 on T cells (Th40 cells), B cells and PBMC of NOD or C57BL/6 mice (mouse) (UniProt P27512); test: flow cytometry, FITC-labeled peptide on NOD mouse lymphocytes

Measured: binding

AKKGYY (FITC-conjugated (site of the label not stated)) [FITC-conjugated KGYY6 peptide]
not listed: [6]
binds: all other assays above

VLQWAKKGYYTMKSN (FITC-labeled (site of the label not stated)) [FITC-labeled 15-mer peptide from mouse CD154]
binds: [6]
